The values that follow come from article PMC9835385.

Amino acid sequences for entries named in this document (tags omitted). Residues count along the entry.
UniProt P26599: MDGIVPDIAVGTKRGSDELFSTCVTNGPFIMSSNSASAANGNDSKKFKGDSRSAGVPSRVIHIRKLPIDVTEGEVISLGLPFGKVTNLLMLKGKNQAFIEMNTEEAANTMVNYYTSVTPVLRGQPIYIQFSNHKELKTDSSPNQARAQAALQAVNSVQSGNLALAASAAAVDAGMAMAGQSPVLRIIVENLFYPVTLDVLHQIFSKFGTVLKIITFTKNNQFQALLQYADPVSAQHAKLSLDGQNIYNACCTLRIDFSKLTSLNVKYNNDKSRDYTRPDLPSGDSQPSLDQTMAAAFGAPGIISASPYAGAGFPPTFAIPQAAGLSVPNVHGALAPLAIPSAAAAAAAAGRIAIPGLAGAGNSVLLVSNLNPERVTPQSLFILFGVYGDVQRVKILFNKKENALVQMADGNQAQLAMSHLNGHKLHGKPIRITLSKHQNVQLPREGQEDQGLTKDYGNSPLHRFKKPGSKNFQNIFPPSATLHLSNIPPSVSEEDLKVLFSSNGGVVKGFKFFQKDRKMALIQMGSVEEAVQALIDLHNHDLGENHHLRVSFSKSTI
UniProt P46531, residues 19-2555: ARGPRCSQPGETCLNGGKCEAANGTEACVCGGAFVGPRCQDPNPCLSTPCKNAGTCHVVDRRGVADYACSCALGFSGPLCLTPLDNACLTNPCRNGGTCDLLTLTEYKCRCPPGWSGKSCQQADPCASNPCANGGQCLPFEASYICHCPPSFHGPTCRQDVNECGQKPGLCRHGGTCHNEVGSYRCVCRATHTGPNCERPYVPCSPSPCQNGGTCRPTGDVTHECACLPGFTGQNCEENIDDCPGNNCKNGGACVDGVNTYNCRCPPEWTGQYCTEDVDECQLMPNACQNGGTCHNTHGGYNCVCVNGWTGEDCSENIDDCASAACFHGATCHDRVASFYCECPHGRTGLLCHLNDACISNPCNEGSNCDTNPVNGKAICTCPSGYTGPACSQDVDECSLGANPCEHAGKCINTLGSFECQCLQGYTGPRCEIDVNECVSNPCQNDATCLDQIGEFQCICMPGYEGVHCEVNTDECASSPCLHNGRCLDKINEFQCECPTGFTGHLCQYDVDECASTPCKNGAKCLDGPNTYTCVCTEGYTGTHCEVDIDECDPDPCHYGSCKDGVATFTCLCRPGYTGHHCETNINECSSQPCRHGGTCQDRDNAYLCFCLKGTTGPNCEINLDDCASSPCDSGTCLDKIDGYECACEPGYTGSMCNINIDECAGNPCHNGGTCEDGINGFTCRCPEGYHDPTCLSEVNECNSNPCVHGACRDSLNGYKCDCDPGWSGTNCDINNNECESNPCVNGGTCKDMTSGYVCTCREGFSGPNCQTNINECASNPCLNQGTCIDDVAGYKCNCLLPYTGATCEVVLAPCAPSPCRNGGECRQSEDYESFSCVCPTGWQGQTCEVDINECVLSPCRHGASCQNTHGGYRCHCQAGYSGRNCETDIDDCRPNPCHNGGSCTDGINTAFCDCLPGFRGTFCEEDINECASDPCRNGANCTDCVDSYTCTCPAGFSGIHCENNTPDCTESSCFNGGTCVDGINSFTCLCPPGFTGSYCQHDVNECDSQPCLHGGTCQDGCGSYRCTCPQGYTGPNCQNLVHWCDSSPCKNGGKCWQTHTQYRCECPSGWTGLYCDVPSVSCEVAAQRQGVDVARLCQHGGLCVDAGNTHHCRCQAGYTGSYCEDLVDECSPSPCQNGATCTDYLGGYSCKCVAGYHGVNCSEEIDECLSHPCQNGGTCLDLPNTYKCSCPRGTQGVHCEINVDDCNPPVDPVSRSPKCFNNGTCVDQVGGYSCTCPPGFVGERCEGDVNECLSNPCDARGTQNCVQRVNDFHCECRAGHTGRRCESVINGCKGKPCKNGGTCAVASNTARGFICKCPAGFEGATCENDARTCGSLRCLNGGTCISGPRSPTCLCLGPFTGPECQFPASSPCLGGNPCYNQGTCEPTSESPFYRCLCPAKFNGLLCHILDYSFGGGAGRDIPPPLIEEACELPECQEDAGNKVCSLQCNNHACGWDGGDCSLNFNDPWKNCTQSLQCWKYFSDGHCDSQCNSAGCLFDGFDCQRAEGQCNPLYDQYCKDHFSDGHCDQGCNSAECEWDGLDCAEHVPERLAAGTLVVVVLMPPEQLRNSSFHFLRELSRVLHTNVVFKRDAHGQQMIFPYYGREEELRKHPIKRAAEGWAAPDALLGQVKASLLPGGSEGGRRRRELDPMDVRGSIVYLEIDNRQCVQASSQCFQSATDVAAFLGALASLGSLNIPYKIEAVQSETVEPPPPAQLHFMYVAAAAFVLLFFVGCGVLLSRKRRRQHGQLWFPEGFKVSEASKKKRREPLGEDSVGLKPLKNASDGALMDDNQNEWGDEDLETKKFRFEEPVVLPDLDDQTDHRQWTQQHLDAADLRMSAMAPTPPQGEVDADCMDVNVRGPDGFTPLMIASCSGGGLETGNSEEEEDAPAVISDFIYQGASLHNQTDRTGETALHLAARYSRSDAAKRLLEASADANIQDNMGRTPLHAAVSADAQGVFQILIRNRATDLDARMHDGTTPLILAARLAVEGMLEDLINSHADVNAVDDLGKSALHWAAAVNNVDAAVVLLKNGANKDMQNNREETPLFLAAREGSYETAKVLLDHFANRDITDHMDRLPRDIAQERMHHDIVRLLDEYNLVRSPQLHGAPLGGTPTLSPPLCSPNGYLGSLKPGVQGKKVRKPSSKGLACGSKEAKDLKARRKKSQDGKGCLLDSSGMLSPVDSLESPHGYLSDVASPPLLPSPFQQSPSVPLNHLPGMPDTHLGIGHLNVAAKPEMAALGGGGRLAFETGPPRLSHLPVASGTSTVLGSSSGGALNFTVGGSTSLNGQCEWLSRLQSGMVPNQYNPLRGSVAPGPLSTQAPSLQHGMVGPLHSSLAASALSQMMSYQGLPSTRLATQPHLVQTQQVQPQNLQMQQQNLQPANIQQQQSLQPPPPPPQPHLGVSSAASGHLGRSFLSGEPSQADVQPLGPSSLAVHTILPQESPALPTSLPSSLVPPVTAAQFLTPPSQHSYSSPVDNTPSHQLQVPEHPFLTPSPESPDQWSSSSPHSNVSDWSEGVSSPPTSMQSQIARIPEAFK

The target in the test is polypyrimidine tract-binding protein 1 (human (endogenous in A549)) (UniProt P26599). Put plainly: co-IP; A549 cell lysate incubated overnight at 4 °C with magnetic beads carrying anti-PTBP1 antibody or anti-IgG (Magna RIP kit), then Western blot; cells irradiated before lysis; called immunoprecipitation or RIP in text and legend. (In general: A western blot detects proteins with antibodies after separation by electrophoresis.)

These are yes or no findings as the source states them, for the method shown. Binding seen in cells or lysates may run through a third protein. Some binding calls cover weakened binding; strength is not graded here.

Turning to “Notch1 (from UniProt P46531 19-2555) (receptor)”, the binding result is “binds”.
